No constants are given. Whether binding was seen depends on the method and setting. In cells and extracts the contact can be indirect. Some results given as binding are weak or reduced against the parent protein; the word gives no strength.

Amino acid sequences for entries named in this document (tags omitted).
UniProt Q9UJ71: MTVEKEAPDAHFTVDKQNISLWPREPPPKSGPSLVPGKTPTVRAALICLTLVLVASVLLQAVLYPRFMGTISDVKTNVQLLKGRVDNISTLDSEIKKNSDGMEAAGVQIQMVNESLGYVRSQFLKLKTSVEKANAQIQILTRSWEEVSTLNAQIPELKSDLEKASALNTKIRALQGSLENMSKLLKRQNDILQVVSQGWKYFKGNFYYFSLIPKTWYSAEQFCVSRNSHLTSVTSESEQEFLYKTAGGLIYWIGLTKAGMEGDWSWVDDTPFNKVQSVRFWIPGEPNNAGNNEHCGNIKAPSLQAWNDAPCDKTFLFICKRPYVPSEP
UniProt Q03135: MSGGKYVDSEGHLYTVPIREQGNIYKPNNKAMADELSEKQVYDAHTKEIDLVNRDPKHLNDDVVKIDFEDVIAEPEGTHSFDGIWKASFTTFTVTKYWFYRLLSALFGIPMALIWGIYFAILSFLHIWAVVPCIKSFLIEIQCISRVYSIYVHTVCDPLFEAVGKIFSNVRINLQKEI

In the test the target is langerin (human (endogenous in primary Langerhans cells)) (UniProt Q9UJ71). The test can be described thus: co-IP; whole cell extracts of primary human LCs in RIPA lysis buffer; 40 μg of extract; caveolin and langerin each immunoprecipitated (anti-Caveolin, Cell Signalling; 10E2 anti-langerin) on protein A/G PLUS agarose beads; immunoblot with Goat-anti-langerin or Rabbit-anti-Caveolin-1. (In general: Immunoblotting shows a protein as a band on a membrane.)

caveolin-1 (from UniProt Q03135 1-178): the binding result is reported as “binds”.

Values taken from publication PMC4301922.
